The exact form of at least one protein or probe is not confirmed.

Sequences of proteins named here, by UniProt entry; tags and fusion partners are left off. A line that says so, or that is headed by a name, gives the form on record, which may keep a tag or linker.
UniProt A2Z389, other isoform, or with tags, fused parts or gaps: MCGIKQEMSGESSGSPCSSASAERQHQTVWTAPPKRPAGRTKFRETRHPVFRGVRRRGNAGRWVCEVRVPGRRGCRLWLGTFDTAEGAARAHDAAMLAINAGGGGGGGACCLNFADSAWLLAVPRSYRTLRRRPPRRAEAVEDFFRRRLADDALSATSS
UniProt Q64MA1, other isoform, or with tags, fused parts or gaps: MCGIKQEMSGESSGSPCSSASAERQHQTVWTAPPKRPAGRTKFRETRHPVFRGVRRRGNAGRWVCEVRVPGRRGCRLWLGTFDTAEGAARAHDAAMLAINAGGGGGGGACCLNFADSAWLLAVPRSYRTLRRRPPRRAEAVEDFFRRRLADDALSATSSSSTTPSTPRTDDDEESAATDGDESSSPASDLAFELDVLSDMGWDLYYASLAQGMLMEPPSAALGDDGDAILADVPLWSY

For series [1], the target named is OsDREB1A (Oryza sativa) (UniProt A2Z389). The experiment in a line: EMSA. The conditions noted are these: room temperature 20 min, 5% PAGE 0.25x TBE; purified recombinant protein; protein details: N-terminal GST (pGEX-4T-1), cDNA nt 69-545; label: 32P.
For series [2], the target named is OsDREB1A (Oryza sativa) (UniProt Q64MA1). The experiment in a line: activity in cells. The conditions noted are these: rice protoplast GUS/LUC transactivation; protein in cells; variant of DRE 75 bp fragment of rd29A promoter.

As for “ACATCAGTTTGAAAGAAAAGGGAAAAAAAGAAAAAATAAATAAAAGATATACTACCGACATGAGTTCCAAAAAGC (double strand) [DRE 75 bp fragment of rd29A promoter]”, the binding result in series [1] was “binds”.
“ACATCAGTTTGAAAGAAAAGGGAAAAAAAGAAAAAATAAATAAAAGATATACTACCGACATGAGTTCCAAAAAGCACATCAGTTTGAAAGAAAAGGGAAAAAAAGAAAAAATAAATAAAAGATATACTACCGACATGAGTTCCAAAAAGC (double strand)”: the “activity on this sequence” value in series [2] is on record as “active”.
